No constants are given. Whether binding was seen depends on the method and setting. Some entries that bind do so weakly or less than the wild type.
T1: alpha-fetoprotein (UniProt P02771)
T1 sequence (looked up): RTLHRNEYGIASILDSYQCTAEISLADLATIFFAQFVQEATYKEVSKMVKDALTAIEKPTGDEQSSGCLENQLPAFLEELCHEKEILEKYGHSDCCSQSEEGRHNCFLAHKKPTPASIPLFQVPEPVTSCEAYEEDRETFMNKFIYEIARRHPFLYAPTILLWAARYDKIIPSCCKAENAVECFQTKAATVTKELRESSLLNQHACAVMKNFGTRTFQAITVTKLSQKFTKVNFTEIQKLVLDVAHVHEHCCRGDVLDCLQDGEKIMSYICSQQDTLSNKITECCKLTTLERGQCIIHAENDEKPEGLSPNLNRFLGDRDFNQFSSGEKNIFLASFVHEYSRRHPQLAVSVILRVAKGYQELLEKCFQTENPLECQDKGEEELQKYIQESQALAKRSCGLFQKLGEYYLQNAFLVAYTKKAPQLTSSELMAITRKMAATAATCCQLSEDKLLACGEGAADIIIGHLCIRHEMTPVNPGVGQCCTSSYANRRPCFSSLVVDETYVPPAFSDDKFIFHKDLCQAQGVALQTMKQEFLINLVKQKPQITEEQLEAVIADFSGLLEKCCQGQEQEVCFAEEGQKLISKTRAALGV


Legend:
alpha-fetoprotein [1] = target: T1, alpha-fetoprotein; experiment: competition ELISA on AFP-coated wells; competitor biotinylated murine Immu31 (FIG. 6 chart A)
alpha-fetoprotein [2] = target: T1, alpha-fetoprotein; experiment: competition ELISA on AFP-coated wells; competitor biotinylated murine Immu31
alpha-fetoprotein [3] = target: T1, alpha-fetoprotein; experiment: competition ELISA on AFP-coated wells; competitor biotinylated murine Immu31 (FIG. 3 legend)

binding (alpha-fetoprotein [1]) | binding (alpha-fetoprotein [2]) | binding (alpha-fetoprotein [3]) | Binder
binds | binds |  | hImmu31T69 (antibody, human IgG1, V domains shown) VH: QVQLQQSGAEVKKPGSSVKVSCKASGYAFTSYVIHWVRQAPGQGLYWIGYIHPYNGGTKYNEKFKGKATITADESTNTAYMELSSLRSEDTAFYFCARSGGGDPFAYWGQGSLVTVSS VL: DIQLTQSPSSLSASVGDRVTITCKASQDINKYIGWYQQKPGKAPKLLMHYTSALLPGIPSRFSGSGSGTDYTFTISSLQPEDIATYYCLQYDDLWTFGGGTKLQIKR
binds | binds | binds | murine Immu31 (antibody, V domains shown) VH: VKLQESGPELVKPGASVKMSCKASGYAFTSYVIHWVRQKPGQGLYWIGYIHPYNGGTKYNEKFKGKATLTSDKSSSTTYMELSSLTSEDSAVYYCARSGGGDPFAYWGQGTLVTVSA VL: DIQLTQSPSSLSASLGGKVTITCKASQDINKYIGWYQHKPGKGPRLLMHYTSALLPGIPSRFSGSGSGRDYSFSISNLEPEDIATYYCLQYDDLWTFGGGTKLEMKR
binds | binds | binds | chimeric Immu31 (antibody, V domains shown) VH: QVQLQESGPELVKPGASVKMSCKASGYAFTSYVIHWVRQKPGQGLYWIGYIHPYNGGTKYNEKFKGKATLTSDKSSSTTYMELSSLTSEDSAVYYCARSGGGDPFAYWGQGTTVTVSS VL: DIQLTQSPSSLSASLGGKVTITCKASQDINKYIGWYQHKPGKGPRLLMHYTSALLPGIPSRFSGSGSGRDYSFSISNLEPEDIATYYCLQYDDLWTFGGGTKLEIKR
